Assay: Reaction with glutathione (1H-NMR)
Conditions: 2 equivalents GSH, 1.1 mM complex, MeOD/D2O 1:1 v/v, pH 7.4, 298 K, less than 10 min

| SMILES | Species seen by 1H-NMR after addition of GSH |
| --- | --- |
| Cc1c(C)c(C)[c-](C)c1C.[Cl-].[Rh+3].c1ccc(-c2cc3ccccc3[n-]2)nc1 [complex 1, [Cp*Rh(ind-py)Cl]] | only one set of signals |
| Cc1c(C)c(C)[c-](C)c1C.[Cl-].[Ir+3].c1ccc(-c2cc3ccccc3[n-]2)nc1 [complex 2, [Cp*Ir(ind-py)Cl]] | two species |
| Cc1ccc(C(C)C)cc1.[Cl-].[Ru+2].c1ccc(-c2cc3ccccc3[n-]2)nc1 [complex 3, [(p-cym)Ru(ind-py)Cl]] | only one set of signals |
| Cc1ccc(C(C)C)cc1.[Cl-].[Os+2].c1ccc(-c2cc3ccccc3[n-]2)nc1 [complex 4, [(p-cym)Os(ind-py)Cl]] | only one set of signals |

From publication PMC7583056, “Synthesis, Characterisation and In Vitro Anticancer Activity of Catalytically Active Indole-Based Half-Sandwich Complexes” (Molecules, 2020)
